Source: patent US20100310509A1

What was measured:
[1] = target: OSM-WT ('AGA' modified human Oncostatin M, referred to as wild-type OSM) (human); experiment: SPR (SensiQ), OSM-WT immobilised, soluble LIFR injected, 1:1 fit overlaid
[2] = target: OSM-WT ('AGA' modified human Oncostatin M, referred to as wild-type OSM) (human); experiment: ELISA, OSM-WT coated, soluble LIFR titrated, anti-LIFR detection, O.D at 450 nm

B1: soluble human LIFR (leukemia inhibitory factor receptor) (receptor, UniProt P42702 45-833, looked up)
chain: QKKGAPHDLKCVTNNLQVWNCSWKAPSGTGRGTDYEVCIENRSRSCYQLEKTSIKIPALSHGDYEITINSLHDFGSSTSKFTLNEQNVSLIPDTPEILNLSADFSTSTLYLKWNDRGSVFPHRSNVIWEIKVLRKESMELVKLVTHNTTLNGKDTLHHWSWASDMPLECAIHFVEIRCYIDNLHFSGLEEWSDWSPVKNISWIPDSQTKVFPQDKVILVGSDITFCCVSQEKVLSALIGHTNCPLIHLDGENVAIKIRNISVSASSGTNVVFTTEDNIFGTVIFAGYPPDTPQQLNCETHDLKEIICSWNPGRVTALVGPRATSYTLVESFSGKYVRLKRAEAPTNESYQLLFQMLPNQEIYNFTLNAHNPLGRSQSTILVNITEKVYPHTPTSFKVKDINSTAVKLSWHLPGNFAKINFLCEIEIKKSNSVQEQRNVTIKGVENSSYLVALDKLNPYTLYTFRIRCSTETFWKWSKWSNKKQHLTTEASPSKGPDTWREWSSDGKNLIIYWKPLPINEANGKILSYNVSCSSDEETQSLSEIPDPQHKAEIRLDKNDYIISVVAKNSVGSSPPSKIASMEIPNDDLKIEQVVGMGKGILLTWHYDPNMTCDYVIKWCNSSRSEPCLMDWRKVPSNSTETVIESDEFRPGIRYNFFLYGCRNQGYQLLRSMIGYIEELAPIVAPNFTVEDTSADSILVKWEDIPVEELRGFLRGYLFYFGKGERDTSKMRVLESGRSDIKVKNITDISQKTLRIADLQGKTSYHLVLRAYTDGGVGPEKSMYVVTKENS
In the case of B1, the binding [1] is reported as “binds” and the binding [2] is reported as “binds”.

Results are given in words; binding and its absence hold for the method and conditions named. A result given as binding can be weak or reduced; the word gives no strength.
